Results as given in paper PMC5355995.

Columns and labels:
[1] = biological target: T1, Rex-His6 (Streptomyces avermitilis ATCC31267) (UniProt Q82E78); test: EMSA; conditions: EMSA: DIG Gel Shift Kit (Roche) binding buffer, 1 ug poly[d(I-C)] in 20 ul, 30 min at 25 C, 5% native PAGE in 0.5x TBE, recombinant protein, residues 1-213, protein details: C-terminal His6, probe letters rebuilt from the primers and the genome
T1 sequence (looked up): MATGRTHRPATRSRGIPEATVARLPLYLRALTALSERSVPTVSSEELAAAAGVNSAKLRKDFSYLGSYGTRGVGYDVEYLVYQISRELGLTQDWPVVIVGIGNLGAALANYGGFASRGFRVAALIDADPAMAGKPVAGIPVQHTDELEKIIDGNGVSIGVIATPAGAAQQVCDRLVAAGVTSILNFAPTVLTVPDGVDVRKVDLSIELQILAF

[2] = biological target: T1, Rex-His6 (Streptomyces avermitilis ATCC31267); test: DNase I footprinting; conditions: footprinting: 400 ng DNA in 25 ul, 30 min at 25 C, DNase I 40 s at 37 C, salt and pH not stated, recombinant protein, residues 1-213, protein details: C-terminal His6, probe letters rebuilt from the primers and the genome
[3] = NADH, label: DIG-11-ddUTP 3' (EMSA), FAM 5' (footprint)
[4] = 1.2 or 2.4 uM Rex, label: FAM 5'
[5] = up to 0.8 uM Rex, label: DIG-11-ddUTP 3'

## CAGTTGCCACGGTGCTCCTGCGGGTAGCGCGGGGCTGCAGGCGGTCACACGTACCTAGACCGCCCCGTCGAAAGCAGGCTATGTCTTTGTGAACGCGTGCACAAAGATAGTGTCCGATTTGCCCGGCCAACGTGACCGGGGTCACGCGCCCCCGGCGTATGCGTATGGAACCGGCACACAGGCGCCTTCGTTCCTCACTCGACGGGGGCAAAACCGCACACACTCCTCAACGATCCACGCCCCCCGAGACCAAACCGCCCCCGATCCTAAGCGACTTTCCGGGCTGTTTGGACTACTC (double strand) [rex promoter probe]
[1]; [3]
  binding result: binds more weakly

## CCTCTGGACCCTTGCTCGCGGGTGCGGCGATGGCCTTCTCCTCCGGCTCGGGCGGTCAATCCGCCCGAGCCGTTTCCGCGGTCACCGCACCGCCATACATACCGGTCACCCGGTATTCCATTCGGTGTTGCAGCACGCGACCCACTGCGCATCCCACTCGTGAATTGTGGACCGCCATCCGGGGCACGGATGTCTCCAGGAAGGAACTCCTTCACCCTCGCGAACACCACCTCAGAATCCCACGATCATCAGTTAATCATCAAAGTCAGCGACCTTGACACTACCCCGCCCACCAGGGCAAATTCATAACACTGACCATCACCTCTGATGCTGATCAACCCAGCCCGCACGGCCGCGACCGCTTTTGCTCAAGCAATCGAAATCCCCGAGACACGCTTTCTTGGAAAAAGGAGAAATAAGAACATCATGCAGGGAGTTTCCTGTCTGCACCCCCTCGGAAACCAGAAGAACTCACG (double strand) [aveR promoter footprint fragment]
[2]; 10 or 15 uM Rex, weak half-site binding, label: FAM 5'
  binding result: binds more weakly

## CGTTGTCCAGGTGTTCTACGCGTACGGGCCTTCGGCAGGGCCTGGGTCGGTCGGGGTGTCGGCGAGGGTCGCGGTGAGATGTCCTGCGGGCCGGGAGAGCCGTATCCGCGGGGCCCGTTTTCGGCAGAGAGGTGACGGGGTCCGTTCTTAGGGACCCCCCACCCCTCTGACTTCGAACAGCCATGGGTCATAATTGCTTGTGAATGTGAACGCGTTCACAAGCGTGTCCGGGTTGTCCCGTGATGTGTGTGACATGCACGGCAAACTGCCGCTGTGACCACGGCGACGAAAGGAGAACGACGTGGAATTGGCTCTGGCGCCGGAGACCCTGGCGCGATGGCAGTTCGGCATCACCACC (double strand) [cydA1 promoter probe]
[1]; NAD+ up to 1 mM, label: DIG-11-ddUTP 3' (EMSA), FAM 5' (footprint)
  binding result: binds
[1]; [3]
  binding result: binds more weakly
[1]; two retarded bands, label: DIG-11-ddUTP 3' (EMSA), FAM 5' (footprint)
  binding result: binds
[2]; 1.2 or 2.4 uM Rex, label: DIG-11-ddUTP 3' (EMSA), FAM 5' (footprint)
  binding result: binds

## CTCGGATGCTTCGCGTATGAAGATCACCGCTCATCCGGCTTCATGATCCTTCGCCAGGTGGCAGAGATCACAAACTCCTTACTTACCCCCGTGTCGCAGATCACAGACCGCCGGGCATAGGATGCGCAGCAGTTGGGCTTGTGACCTGCTTCACATGTACGCGATCTTCGTCGGGACGCACGGGGTTCGTGGGACGTGTGAGGCGGGAGTGCTCGCCCGACGCAACCTCCCCCAAGGTCTCGGCTCCGCTCGACCAGGGGGACCCCCATGCAGTCAGTGCCGACTGAGAGGAGCGAGGAGCGTGAA (double strand) [nuoA1 promoter footprint fragment]
[2]; [4]
  binding result: binds

## GAGTCTCTACGTGGCGATCGAGACGGCCCGCAACACCGGCCTCCACAGAGAGCCAGAACCCCTCCTCAATCCAAAGGACCACGTCAGTCCGTCTGACGATCGGCCCTTCACTTGTTGAGGGATTCGTGAAAGCGTTCACATTCACAAGCAACCTGAATGTAATACCAAGGAGAGGTAGCAGCCATGGA (double strand) [wblE promoter EMSA probe]
[1]; NADH, label: DIG-11-ddUTP 3'
  binding result: binds more weakly

## GATGGCCTTCTCCTCCGGCTCGGGCGGTCAATCCGCCCGAGCCGTTTCCGCGGTCACCGCACCGCCATACATACCGGTCACCCGGTATTCCATTCGGTGTTGCAGCACGCGACCCACTGCGCATCCCACTCGTGAATTGTGGACCGCCATCCGGGGCACGGATGTCTCCAGGAAGGAACTCCTTCACCCTCGCGAACACCACCTCAGAATCCCACGATCATCAGTTAATCATCAAAGTCAGCGACCTTGACACTACCCCGCCCACCAGGGCAAATTCATAACACTGACCATCACCTCTGATGCTGATCAACCCAGCCCGCACGGCCGCGACCGCTTTTGCTCAAGCAATCGAAATCCCCGAGACACGCTTTCTTGGAAAAAGGAGAAATAAGAACATCATGCAGGGAGTTTCCTGTCTGCACCCCCTCGGAAACCAGAAGAACTCACG (double strand) [aveR promoter EMSA probe]
[1]; [5]
  binding result: no binding

## GCTGTCGTGGCGATCTACTCCAGGAAACGTAGACCTTTTTCTGCCACTTGTCCGAGCTATGCAGACACCCCGATCCCCTAAGAAATGAACACCCTTGGGAACGGCACAGCCCAGGGGTGGATAGGGGTATTCGCCGCCGCCGCGCCGTCATTAGCTTTGAAGAGTTGAAGACGTTCAAGACATTGATGCCCGGCCGTCAGCGGATTTCTCGCGCTCCTTTCATTCTTCGACGCTGCATTGCAGCTCTCATCATGTCCGCACGGCCGCCGAGCATTGCCTAGCGGTGAGGACACAGCTCAGGTGCAGAGGATGGACGG (double strand) [aveD-A1 intergenic probe]
[1]; [5]
  binding result: no binding

## GCTTCATGATCCTTCGCCAGGTGGCAGAGATCACAAACTCCTTACTTACCCCCGTGTCGCAGATCACAGACCGCCGGGCATAGGATGCGCAGCAGTTGGGCTTGTGACCTGCTTCACATGTACGCGATCTTCGTCGGGACGCACGGGGTTCGTGGGACGTGTGAGGCGGGAGTGCTCGCCCGACGCAACCTCCCCCAAGGTCTCGGCTCCGCTCGACCAGGGGGACCCCCATGCAGTCAGTGCCGACTGAGAGGAGCGAGGAGCGTGAA (double strand) [nuoA1 promoter EMSA probe]
[1]; NADH, label: DIG-11-ddUTP 3'
  binding result: binds more weakly

## GGTGGGCAGAGCACAGTGCAGGAGCGTTCGGGCGTCGTTGGACTGCATTGCGGCAGCTCCTCCGGCGAAATCTTGGGGGGGTTCGTTTCGGTCGTCGAGAGATGACCCTAGCCCGAGGTGAACGAGGCGTGCCTCGTACGGGCGGCCTGTCTCGCTCCGGCCGCCCCAATATATCTCGGGTTCTCGTGAACCGTATCACAAACTATTTGATGCAGTCTTTACCCGGAAGTGTGCTCACCGTCACACGAACGGGCCATGCGGTAGCTCAGCGAGATGACACCGCGGGTGTGGACTTGGTATGCGCGCGTGATCGCGAGCGCGGGCGGTGCGCGCGTGCTCAGTACGTGTAGAAACCCTGCCCGGACT (double strand) [atpI promoter footprint fragment]
[2]; [4]
  binding result: binds

For part of these data: A negative result means that nothing was seen under these conditions. Where a protein sequence is shown, tags need not be part of it. Weaker means in comparison with the reference protein, sequence or condition of that experiment. For part of these data: Construct, isoform or probe ends are uncertain for at least one entry.
